# Measurements from PubChem BioAssay AID540276 (National Center for Advancing Translational Sciences (NCATS), 2011).
# In all, about 300,000 compounds went through this assay and about 5,400 (1.8%) were called active. The shares of active, inactive and inconclusive entries below differ from those in the screen. The call rests on the fitted dose curve; tested in HEK293 cells. Where the call is inconclusive, the potency comes from a doubtful curve fit.
# Assay: qHTS for inhibitors of binding or entry into cells for Marburg Virus
# Conditions: Marburg virus pseudotyped entry inhibition, cell reporter; activity change, negative = inhibition: at 37.8 µM (top of the series) unless noted
# On the % scale 0 is the no-effect control and ±100 the full control effect; potency means the concentration at half of the fitted maximal effect.
Structure (SMILES),Potency,"activity change, negative = inhibition"
CCOC(=O)N1CCC(NC(=O)CCc2c(C)nc3c(c(C)nn3C(C)(C)C)c2C)CC1,"inconclusive: 11.6 µM [inhibitor, partial curve]",
FC(F)(F)c1cccc(CNC2c3ccccc3-c3ccccc32)c1,"inconclusive: 35.5 µM [inhibitor, single point]",
Cc1cc(NC(=O)CCC(=O)N(Cc2cccs2)C(C(=O)NC2CCCC2)c2ccncc2)no1 (configuration not stated),,inactive: -2.47%
COc1ccc(/C=N/NC(=O)c2ccccc2[N+](=O)[O-])cc1CN1CCc2cc(OC)c(OC)cc2C1C (configuration not stated),"inconclusive: 35.5 µM [inhibitor, single point]",
COc1ccc(CNC(=S)Nc2cccc(F)c2)cc1,,inactive: -3.22%
CC(=C/c1ccco1)/C=N/N1CCN(c2ccccc2)CC1,,inactive: -23.2%
O=C/C(=C\Nc1ccccn1)c1nc2ccccc2o1,,inactive: 4.39%
Cc1ccccc1NC(=O)COC(=O)C1(C)CC1(Cl)Cl (configuration not stated),,inactive: -1.75% [at 46.1 µM]
CCC(C(=O)N1CCN(c2ccccc2F)CC1)n1nc(C)c2sc3ccccc3c2c1=O (configuration not stated),,inactive: 17.5% [at 46.1 µM]
CC(C)(C)OC(=O)NCCCCCc1nnc(SCc2ccccc2)o1,"inconclusive: 35.5 µM [inhibitor, partial curve, poor fit]",
Cc1ccccc1OCC(O)Cn1c(NCc2ccco2)nc2c1c(=O)[nH]c(=O)n2C (configuration not stated),"inconclusive: 29.1 µM [inhibitor, single point]",
N#Cc1c(NC(=O)CSc2ccccn2)oc(-c2ccccc2)c1-c1ccccc1,,inactive: 1.12%
C/C(=N\Nc1ccc(C#N)cc1[N+](=O)[O-])c1ccc(C)o1,,inactive: 10.3% [at 46.1 µM]
COCCn1nnnc1C(c1cccs1)N1CCN2CCCC2C1 (configuration not stated),,inactive: 1.96% [at 46.1 µM]
COc1ccc(NC(=O)/C=C/C(=O)O)c([N+](=O)[O-])c1,,inactive: 10.8% [at 46.1 µM]
COc1ccc(C(=O)N2CCCCCC2)cc1OC1CCN(C(C)=O)CC1,,inactive: 6.75%
C=C(C)CCC(C)N1CCC(n2nccc2NC(=O)CCOc2ccccc2)CC1 (configuration not stated),,inactive: -18.8%
CCOc1ccc(-c2cc(C(=O)N3CCN(C)CC3)c3ccccc3n2)cc1,"inconclusive: 0.58 µM [inhibitor, partial curve, poor fit]",
O=C1/C(=C\c2ccc(Br)o2)SC(=Nc2ccccc2)N1c1ccccc1,"inconclusive: 23.1 µM [inhibitor, partial curve, poor fit]",
C=C(C)C(=O)Nc1ccc2c(c1)OCCOCCOCCO2,active: 11.2 µM,
COc1cc(NS(=O)(=O)c2ccc(NC(=O)/C=C/c3cccc([N+](=O)[O-])c3)cc2)ncn1,"inconclusive: 7.94 µM [inhibitor, partial curve, poor fit]",
COc1cccc(C2C=C(c3ccc(OC)cc3OC)Nc3nnnn32)c1 (configuration not stated),"inconclusive: 20 µM [inhibitor, partial curve, poor fit]",
Cc1ccc(C)c(CN2C(=O)C3(c4ccccc42)N(c2cccc(C(F)(F)F)c2)C(=O)CS3(=O)=O)c1 (configuration not stated),"inconclusive: 17.8 µM [inhibitor, partial curve, poor fit]",
COC(=O)N[C@H](CC(C)=O)c1cccc(F)c1,,inactive: -6.74% [at 14.2 µM]

# Taken from above:
# Value for C/C(=N\Nc1ccc(C#N)cc1[N+](=O)[O-])c1ccc(C)o1 under activity change, negative = inhibition: inactive: 10.3% [at 46.1 µM]
# Value for Cc1ccc(C)c(CN2C(=O)C3(c4ccccc42)N(c2cccc(C(F)(F)F)c2)C(=O)CS3(=O)=O)c1 (configuration not stated) under Potency: inconclusive: 17.8 µM [inhibitor, partial curve, poor fit]

# More structures.

Structure (SMILES),Potency,"activity change, negative = inhibition"
Cc1cc(C)n(C(=O)c2ccc(Cl)c(F)c2F)n1,"inconclusive: 0.631 µM [inhibitor, full curve, poor fit]",
O=C(c1cccs1)N(CC1CCCO1)c1nc(-c2ccccc2)cs1 (configuration not stated),"inconclusive: 29.1 µM [inhibitor, single point]",
Cc1noc(C)c1C(=O)Nc1ccccc1-c1ccccc1,"inconclusive: 0.058 µM [inhibitor, full curve, poor fit]",
O=c1[nH]c2cc3c(cc2cc1C(c1nnnn1CC1CCCO1)N1CCCCCC1)OCCO3 (configuration not stated),"inconclusive: 0.73 µM [inhibitor, full curve, poor fit]",
N=c1c(C(=O)NCc2ccco2)cc2c(=O)n3ccccc3nc2n1CCc1ccccc1,"inconclusive: 8.91 µM [inhibitor, partial curve, poor fit]",
CNC(=O)C(=O)NCC1OCCN1S(=O)(=O)c1ccc(C)cc1 (configuration not stated),,inactive: 2.43%
O=C(Nc1ccccc1)C1C2CCC3C(CCC21)C3(Cl)Cl (configuration not stated),,inactive: 0.432%
Cc1cc(C)c2nc(NC(=O)C3CCCO3)sc2c1 (configuration not stated),"inconclusive: 35.5 µM [inhibitor, single point]",
COc1ccc(C(=O)C2CCCN(Cc3nc4ccccc4nc3C)C2)cc1OC (configuration not stated),"inconclusive: 0.562 µM [inhibitor, full curve, poor fit]",
Cc1ccc(/C(N)=N/OC(=O)c2cc(-c3ccccc3)nc3ccccc23)cc1,,inactive: -14.8%
O=C(Nc1ccc2ccccc2c1)c1ccc(NS(=O)(=O)c2ccc(Br)s2)cc1,"inconclusive: 18.4 µM [activator, partial curve, poor fit]",
CCOc1ccccc1NC(=O)C1CCCN(c2c(CC)c(C)nc3ncnn23)C1 (configuration not stated),"inconclusive: 15.8 µM [inhibitor, single point]",
COc1ccccc1OCc1nc(C#N)c(N2CCCC2)o1,,inactive: 23.5% [at 46.1 µM]
O=c1cc(-c2ccccc2)n(S(=O)(=O)c2ccccc2)o1,,inactive: -2.26%
CCC(C)NC(=O)C(=O)NC1CCCC1 (configuration not stated),"inconclusive: 22.4 µM [activator, partial curve, poor fit]",
O=C(c1c(F)c(F)c(F)c(F)c1F)N1CCN(c2cccc(C(F)(F)F)c2)CC1,"inconclusive: 5.8 µM [inhibitor, partial curve, poor fit]",
O=C(NCCc1ccc(Cl)cc1)C1CCN(S(=O)(=O)c2cccs2)CC1,"inconclusive: 0.184 µM [inhibitor, partial curve, poor fit]",
N#Cc1ccc(-c2ccccc2)nc1Sc1ccc(F)cc1,,inactive: 6.34%
O=C(N/N=C1/CCc2ccccc21)C1CC1,,inactive: 9.12% [at 46.1 µM]
CC(C(=O)Nc1ccc(C(=O)O)cc1)N1C(=O)c2ccccc2C1=O (configuration not stated),,inactive: -6.28%
COc1ccc(NC(=O)CSc2nc3ccncc3[nH]2)c(OC)c1,"inconclusive: 11.2 µM [activator, single point]",
CCN1C(=NCCc2cccnc2)N[C@H](CCc2ccccc2)[C@H](C(=O)OC)[C@H]1C,,inactive: -16.2% [at 14.2 µM]
